SMILES strings stand for the structures. Among all 1,300 compounds or so, about 65 (5%) were called active.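 The calls were made as follows: active = growth inhibition reaching a set limit at one or more tested doses; inactive = the rest.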 This is one part of the list. Entries with a potency or affinity are not part of this list.

A short description of this test: wild-type E. coli BW25113 antibacterial activity – OD615, dose response (AID 638). The note with it: at 100 µM (top of the series) unless noted. Put shortly: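 Material – E. coli BW25113 wild type · Medium – Kanamycin-supplemented LB broth · Doses – compound dilution series for dose-response · Incubation – 20 h compound exposure, 37 °C · Technique – optical density (absorbance) at 615 nm · Read-out basis – IC50 from 4-parameter logistic, bounds fixed 0–100% · Control set – chloramphenicol at 30 µM final as inhibition control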
For `CC1CCCCN1C(=O)CSc1nc(C2CC2)nc2c1cnn2-c1ccccc1` (configuration not stated), the growth inhibition is inactive: -10.1%.
Turning to `CCOC(=O)N1CCC(c2cc(=O)n3[nH]c(C)c(-c4ccc(F)cc4)c3n2)CC1`, the growth inhibition was inactive: -7.78%.
Regarding `CC(=O)c1c(O)cc(C)n(Nc2nc(C)cc(C)n2)c1=O`, the growth inhibition is inactive: -10.9%.
With `Cc1cccc(Cc2c(C)nc3c(C(=O)NCc4ccco4)cnn3c2C)c1` the figure was inactive: -16.1%; with `O=C(c1ccc(COc2ccccc2Br)o1)N1CCCCCC1`, inactive: 6.17%.
`Cc1nc2ccc(C(C(F)(F)F)(C(F)(F)F)C(F)(F)F)cc2[nH]1`: the growth inhibition was inactive: 8.28%.
For the compound `Cc1nn(-c2nc3ccccc3[nH]2)c(N)c1-c1ccccc1`, the growth inhibition is inactive: -4.59%.
For the compound `CCOC(=O)c1cc(C)n(S(=O)(=O)c2ccc(C)cc2)c1C`, the growth inhibition is inactive: 8.21%.
Turning to `O=C1OC(c2ccc(O)cc2)(c2ccc(O)cc2)c2ccccc21`, the growth inhibition was active: 24.6%.
Take `COc1cccc(-c2cc(C(=O)N3CC4(C)CC3CC(C)(C)C4)no2)c1` (configuration not stated): the growth inhibition was inactive: 6.59%.
Turning to `CCN(C(=O)c1cc2cc3ccc(C)cc3nc2o1)c1ccc(OC)cc1`, the growth inhibition was inactive: 3.29%.
As to `O=C(Cn1c2c(c(-c3ccccc3)cc1=O)CCCC2)N1CCCCCC1`, the growth inhibition was inactive: 3.36%.
With `Cc1cc(C)n(-c2nc3ccccc3nc2N2CCCCCC2)n1` the figure was inactive: 1.79%; with `CCn1c2ccccc2c2nnc(SCc3ccccc3)nc21`, inactive: -1.82%; with `COc1ccccc1N1CCN(C(=O)c2cc(-c3ccc(Br)cc3)on2)CC1`, inactive: -4.65%.
Consider `CC1CCC(C(C)C)C(OC(=O)COC(=O)c2ccc(=O)[nH]c2)C1` (configuration not stated), for which the growth inhibition was inactive: 1.53%.
`CCCN(CCC)C(=O)CSc1nc2ccccc2c(=O)n1C1CCCC1`: the growth inhibition is inactive: -6.85%.
With `COc1cccc(-c2csc(N3CCN(C(=O)C4CCCCC4)CC3)n2)c1`, the growth inhibition is inactive: -4.78%.
As to `CN1CCN(CC(=O)N2CCn3c4c(c5cc(C6CCCCC6)ccc53)CCCC42)CC1` (configuration not stated), the growth inhibition is inactive: 14.6%.
In the case of `Cn1c(=O)c(C(=S)NC(=O)C2CC2)c(N)n(Cc2ccccc2)c1=O`, the growth inhibition was inactive: -3.57%.
As for `CN(Cc1ccccc1)C(=O)CSc1nc2ccccc2c(=O)n1Cc1ccco1`, the growth inhibition was inactive: 1.19%.
The value for `CCS(=O)(=O)n1nc(-c2ccccc2)nc1SCc1ccccc1` was inactive: -2.71%; that for `OC1(c2cccc(C(F)(F)F)c2)CCN(c2ncnc3c2[nH]c2ccc(F)cc23)CC1` was inactive: 0.43%.
With `Oc1c(C(c2cccs2)N2CCN(c3cccc(Cl)c3)CC2)sc2ncnn12` (configuration not stated), the growth inhibition is inactive: -3.75%.
Turning to `CCCC1=C(C(=O)OCC)C(c2cc(Cl)cc(OC)c2OCC(=O)OCC)NC(=O)N1` (configuration not stated), the growth inhibition was inactive: 0.91%.
For the compound `CC1CC(C)CN(C(=O)CSc2nnc(-c3ccc(Cl)s3)o2)C1` (configuration not stated), the growth inhibition was inactive: 7.72%.
On to `COc1ccc(/C(O)=C2\C(=O)C(=O)N(CC3CCCO3)C2c2cc(OC)ccc2OC)cc1` (configuration not stated), for which the growth inhibition is inactive: -4.82%.
The value for `CCOC(=O)c1cn(CC)c2cc(N3CCOCC3)c(F)cc2c1=O` was inactive: 4.05% [at 50 µM].
For `CCc1c(C)nc2cc(-c3cc(OC)cc(OC)c3)nn2c1N1CCCC1`, the growth inhibition was inactive: 0.39%.
In the case of `N#Cc1nc(COc2ccccc2F)oc1NCCc1ccccc1`, the growth inhibition is inactive: 2.33%.
Turning to `O=C(CCc1nc(-c2ccccc2F)no1)Nc1ccc(Oc2ccccc2)cc1`, the growth inhibition is inactive: 5.17%.
For the compound `COC(=O)c1c(NC(=O)c2ccc(C)o2)sc2c1CCCCC2`, the growth inhibition is inactive: 5.05%.
With `CC(C)(C)c1ccc(OCc2nc(-c3ccccn3)no2)c(Br)c1` the figure was inactive: 2.12%; with `O=C(OC1CCCCC1)c1ccc(NC(=O)c2ccco2)cc1`, inactive: 2.7%; with `c1ccc(CSc2nnc(-c3cccs3)n2Cc2ccco2)cc1`, inactive: 6.33%.
`CCCCn1c(=O)n(Cc2cccc(F)c2)c(=O)c2c1ncn2Cc1ccco1`: the growth inhibition was inactive: -0.15%.
For the compound `CC1=CC(C)(C)N(C(=O)CSc2nnc(-c3ccccc3)o2)c2ccc(C)cc21`, the growth inhibition is inactive: -24.4%.
Take `CCOC(=O)c1cc(CC)sc1NC(=O)Cc1ccsc1`: the growth inhibition was inactive: 7.24%.
Turning to `COc1ccc(Oc2cn[nH]c2-c2ccc(O)cc2O)cc1`, the growth inhibition is inactive: 13.1%.
In the case of `Cc1cc(/C=C(/C#N)c2cccc(F)c2)c(C)n1-c1cccnc1`, the growth inhibition is inactive: -2.11%.
For `CN(c1ccccc1)S(=O)(=O)c1ccc(C(=O)Nc2nnc(-c3ccc(F)cc3)o2)cc1`, the growth inhibition was inactive: -11.8%.
For `COc1cccc(-c2nnc(NC(=O)c3ccc(S(=O)(=O)N(CC(C)C)CC(C)C)cc3)o2)c1`, the growth inhibition was inactive: -1.41%.
On to `Cc1cc(C)c2[nH]c(=O)c(C(c3nnnn3CC3CCCO3)N3CCCC(C)C3)cc2c1` (configuration not stated), for which the growth inhibition is inactive: 8.66%.
Take `O=C(O)CCC(=O)N1CCc2cc(S(=O)(=O)N3CCC(Cc4ccccc4)CC3)ccc21`: the growth inhibition is inactive: -5.1%.
As for `COc1ccc(-c2[nH]ncc2-c2ccc(Cl)cc2)c(O)c1`, the growth inhibition is inactive: 19.1%.
With `CCn1c(C(=O)OC)cc2c1ccn2-c1ccc(F)cc1`, the growth inhibition was inactive: 2.37%.
With `Cc1ccc2cc(CN(Cc3ccccc3)Cc3nnnn3C3CCCC3)c(=O)[nH]c2c1` the figure was inactive: -12.1%; with `Cn1c(-c2ccc3c(c2)OCO3)cnc1N`, inactive: -8.44%.
Consider `CCOc1cc(C)c(C(C)C)cc1S(=O)(=O)N1CC(C)OC(C)C1` (configuration not stated), for which the growth inhibition was inactive: 15.5%.
Turning to `CC(C)Cn1c(N)c(C(=O)NCc2cccs2)c2nc3ccccc3nc21`, the growth inhibition is inactive: 11.5%.
On to `Cc1ccc(Cn2ncn3c(cc4ccccc43)c2=O)cc1`, for which the growth inhibition is inactive: 5.85%.
In the case of `CCOC(=O)c1cnc(-n2nc(C)cc2C)nc1N(CC)CC`, the growth inhibition was inactive: 4.97%.
`O=C(C1CC1)N1CCc2cc(S(=O)(=O)NCCC3=CCCCC3)ccc21`: the growth inhibition is inactive: 9.41%.
For `C=C(C)Cn1c(N2CCC(Cc3ccccc3)CC2)nc2c1c(=O)[nH]c(=O)n2C`, the growth inhibition is inactive: -2.32%.
Turning to `Cc1nn(-c2ccccc2)c2sc(-c3n[nH]c(=S)o3)cc12`, the growth inhibition is inactive: -8.44%.
On to `Cn1c(CSc2nnc(SCc3ccccc3)s2)nc2ccccc21`, for which the growth inhibition is inactive: -13.8%.
The value for `Cc1ccc(C(=O)Nc2nc(COc3ccccc3)cs2)s1` was inactive: -6.21%.
The value for `CC(C)N(Cc1nc(-c2ccc(Cl)cc2)no1)C(=O)CCC1CCCC1` was inactive: 7.13%; that for `CC1CCCCN1S(=O)(=O)c1ccc(C(=O)Nc2nnc(-c3cccs3)o2)cc1` (configuration not stated) was inactive: 2.23%.
As for `CC(C)(C)N1C(=O)Cc2c1nc(N)c1c(N)nc(N3CCCCC3CO)c(C#N)c21` (configuration not stated), the growth inhibition is inactive: -2.72%.
Consider `C=CCN(CC=C)S(=O)(=O)c1ccc2nc(NC(=O)C(C)C)sc2c1`, for which the growth inhibition was inactive: 2.22%.
As for `COc1ccc(-c2noc(Cc3ccc(Cl)cc3)n2)cc1OC`, the growth inhibition is inactive: 7.9%.
As for `COC(=O)c1ccccc1NC(=O)N1c2ccccc2CC1C` (configuration not stated), the growth inhibition was inactive: 3.49%.
With `CSCc1nnc(NC(=O)c2ccc(S(=O)(=O)N(CC(C)C)CC(C)C)cc2)o1`, the growth inhibition was inactive: 9.06%.
Regarding `Cc1cccn2c(=O)c3cc(C(=O)NCc4ccco4)c(=N)n(CCc4ccccc4)c3nc12`, the growth inhibition is inactive: -3.69%.
On to `COc1ccc(-c2noc(CCCc3ccccc3)n2)cc1OC`, for which the growth inhibition is inactive: 3.3%.
Consider `Cc1ccc(S(=O)(=O)Nc2cccc3ncccc23)s1`, for which the growth inhibition was inactive: -6.86%.
In the case of `CCCc1nc(SC2CCCC2)c2c(=O)n(C)c(=O)n(C)c2n1`, the growth inhibition was inactive: 9.04%.
For the compound `O=C(Nc1cccc(Cl)c1)N(CCN1CCOCC1)Cc1cccc(Cl)c1`, the growth inhibition is inactive: 18.8% [at 50 µM].
As for `O=c1n(Cc2ccccc2)c2cc(Cl)cnc2n1Cc1ccccc1`, the growth inhibition is inactive: 6.2%.
With `O=S(=O)(Nc1ccc2oc(-c3ccccc3)nc2c1)c1ccccc1`, the growth inhibition was inactive: -12.9%.
Regarding `O=C(NC1CCCCC1)c1nc2c(nnn2Cc2ccccc2Cl)c(=O)[nH]1`, the growth inhibition is inactive: 13.2%.
As for `CCCCOn1c(C)c(C(=O)OCC)c2c3nonc3ccc21`, the growth inhibition was inactive: 1.71%.
Consider `c1ccc(CSc2nnc(-c3ccco3)c(-c3ccco3)n2)cc1`, for which the growth inhibition was inactive: -2.9%.
As to `Cc1cccc(Nc2nc(NCc3ccco3)nc(N3CCOCC3)n2)c1`, the growth inhibition is inactive: -6.73%.
As to `CCOc1ccccc1NC(=O)c1cc(CC(C)C)oc1C`, the growth inhibition is inactive: 5.67%.
For `Cc1ccc(OCc2nc(C#N)c(N3CCN(Cc4ccccc4)CC3)o2)cc1`, the growth inhibition was inactive: -9.19%.
The value for `COc1cc(C(=O)Nc2nc(-c3cccs3)cs2)cc(OC)c1OC` was inactive: -9.75%; that for `Brc1ccc(CSc2nnc(-c3cnccn3)n2Cc2ccco2)cc1` was inactive: 4.47%.
Turning to `COc1ccc(NS(=O)(=O)c2ccc3oc4ccccc4c3c2)cn1`, the growth inhibition was inactive: 13.9%.
For the compound `CC1(C)CC2CC(C)(CN2C(=O)c2cc(-c3ccccc3O)on2)C1` (configuration not stated), the growth inhibition was inactive: -3.86%.
For the compound `COc1ccccc1C1CC(c2ccc(Cl)cc2)Nc2ncnn21` (configuration not stated), the growth inhibition was inactive: 7.26%.
As for `CCCCOc1[nH]c2nc(-c3ccco3)n(Cc3ccco3)c(=N)c2c1C#N`, the growth inhibition was inactive: 5.8%.
In the case of `CCOC(=O)Cc1csc(NC(=O)c2csc3c2CCCC3)n1`, the growth inhibition is inactive: 4.05%.
With `Cc1ccc(NC(=O)c2nnn(-c3cc(C)cc(C)c3)c2N)cc1` the figure was inactive: -3.73%; with `Cc1cc(N2CCCCCC2)nc(-c2ccccc2O)n1`, inactive: -1.48%; with `COC(=O)c1[nH]c2ccc(C)cc2c1NS(=O)(=O)c1ccc(F)c(C)c1`, inactive: 5.83%.
In the case of `Fc1ccc(CNc2nc(-c3ccco3)cc(C(F)(F)F)n2)cc1`, the growth inhibition was inactive: 8.92%.
As for `Cc1cccc(-n2ncc3c(NCc4ccc5c(c4)OCO5)ncnc32)c1`, the growth inhibition was inactive: 5.75%.
`CCOc1ccc(N(CC(=O)Nc2cccc(OC)c2)S(=O)(=O)c2c(C)noc2C)cc1`: the growth inhibition is inactive: -23.6%.
Consider `COc1ccc(Cl)cc1CN1CCN(c2nc(C)cc(C)c2C#N)CC1`, for which the growth inhibition was inactive: 12%.
Turning to `CCOC(=O)c1nnn(-c2nonc2-n2cccc2)c1CN1CCC(C)CC1`, the growth inhibition was inactive: 12.2%.
